Among the data in PubChem BioAssay AID248 (DTP/NCI, 2004) are survivor count and T/C values, retold here.

The test system of this experiment is L1210 leukemia ip in BDF1 mice, survival T/C. Description: NCI In Vivo Anticancer Drug Screen. Data for tumor model L1210 Leukemia (intraperitoneal) in B6D2F1 (BDF1) mice. Conditions: T/C endpoint: mean survival time, higher T/C = longer survival.
Where [1] appears, read: dose: 25.0 mg/kg/injection, schedule: Q01DX009 (ip), vehicle: saline with Tween-80.
The mark [2] stands for this setting: dose: 100.0 mg/kg/injection, schedule: Q01DX009 (ip), vehicle: saline with Tween-80.
The mark [3] stands for this setting: dose: 200.0 mg/kg/injection, schedule: Q01DX009 (ip), vehicle: saline with Tween-80.
Setting [4] is: dose: 400.0 mg/kg/injection, schedule: Q04DX003 (ip), vehicle: saline with Tween-80.
The mark [5] stands for this setting: dose: 400.0 mg/kg/injection, schedule: Q01DX009 (ip), vehicle: saline with Tween-80.
Setting [6] is: dose: 400.0 mg/kg/injection, schedule: Q04DX002 (ip), vehicle: saline with Tween-80.
Setting [7] is: dose: 100.0 mg/kg/injection, schedule: Q04DX003 (ip), vehicle: Klucel (hydroxypropylcellulose) (HPC).
[8] abbreviates: dose: 200.0 mg/kg/injection, schedule: Q04DX003 (ip), vehicle: Klucel (hydroxypropylcellulose) (HPC).
[9] abbreviates: dose: 400.0 mg/kg/injection, schedule: Q04DX003 (ip), vehicle: Klucel (hydroxypropylcellulose) (HPC).
The mark [10] stands for this setting: dose: 400.0 mg/kg/injection, schedule: Q01DX009 (ip), vehicle: saline.
[11] abbreviates: dose: 100.0 mg/kg/injection, schedule: Q04DX003 (ip), vehicle: saline with Tween-80.
[12] abbreviates: dose: 200.0 mg/kg/injection, schedule: Q04DX003 (ip), vehicle: saline with Tween-80.
Setting [13] is: dose: 400.0 mg/kg/injection, schedule: Q01DX001 (ip), vehicle: saline.
Where [14] appears, read: dose: 200.0 mg/kg/injection, schedule: Q01DX009 (ip), vehicle: saline.
Where [15] appears, read: dose: 50.0 mg/kg/injection, schedule: Q01DX009 (ip), vehicle: saline with Tween-80.

The list does not hold the whole screen: it gathers tests that were run many times, whatever their T/C, doses with no T/C, and many T/C values between a quarter and a half above the control. Further doses and runs are listed elsewhere. T/C: endpoint of the treated group in % of that of the vehicle group. Some entries give survivors of the animals treated and no T/C: the source files T/C as zero there, which appears to mark a toxic dose or a test without result, not a measured value. Some doses without a T/C left all or most animals alive at the check, yet need not have been tolerated: survival well below the control is almost never listed, so the zero probably covers shortened survival too. Counts of survivors are from the toxicity check (mostly the fifth day) where no day follows; animals may have died later. Schedules are NCI's codes, read here as Q, the interval in days (D) or hours (H), X, the number of doses. Some doses were run more than once; their values stand side by side, smallest first. For survival time, the PubChem record calls one and a half times the control and up active, and a quarter to a half above the control has no call in these data; cut-offs in other NCI protocols can differ. Some T/C values carry the count of animals alive at the toxicity check (mostly the fifth day); without a count, all were alive then.

Consider `CCCCNc1nc2ccccc2[nH]1`, for which the survivor count is, setting by setting: (dose: 75.0 mg/kg/injection, schedule: Q01DX001 (ip), vehicle: saline) 0 of 6; (dose: 150.0 mg/kg/injection, schedule: Q01DX001 (ip), vehicle: saline) 0 of 6; (dose: 300.0 mg/kg/injection, schedule: Q01DX001 (ip), vehicle: saline) 1 of 6.
For `O=[N+]([O-])/C=C/c1ccc2ccccc2n1`, the survivor count by setting is: under setting [1], 6 of 6; under setting [2], 0 of 6; under setting [3], 0 of 6; under setting [4], 1 of 6.
Take `O=C(Nc1cccc([N+](=O)[O-])c1)Oc1ccc(-c2ccccc2)cc1`: the survivor count under setting [5] is given as 3 of 3.
For `O=C(CCCC(=O)N/N=C/c1ccc(Cl)cc1)N/N=C\c1ccc(Cl)cc1`, the survivor count (dose: 100.0 mg/kg/injection, schedule: Q01DX001 (ip), vehicle: other) is 4 of 4.
With `N#Cc1ccc(N=S=O)cc1`, under setting [6], the survivor count is listed as 1 of 3.
With `CCOC(=O)c1ccc(C(=O)O)[n+]([O-])c1`, where the note is “dose: 400.0 mg/kg/injection, schedule: Q01DX009 (ip), vehicle: Klucel (hydroxypropylcellulose) (HPC)”, the survivor count is recorded as 5 of 6.
Regarding `c1nc2c([nH]1)CCCC2`, the survivor count reads like this: (dose: 100.0 mg/kg/injection, schedule: Q01DX001 (ip), vehicle: carboxymethylcellulose (CMC)) 0 of 6; (dose: 100.0 mg/kg/injection, schedule: Q01DX009 (ip), vehicle: carboxymethylcellulose (CMC)) 0 of 3 and 0 of 6; (dose: 100.0 mg/kg/injection, schedule: Q04DX002 (ip), vehicle: carboxymethylcellulose (CMC)) 0 of 3, 0 of 6, 2 of 6, 2 of 3; (dose: 200.0 mg/kg/injection, schedule: Q04DX002 (ip), vehicle: carboxymethylcellulose (CMC)) 0 of 3 and 0 of 6; (dose: 400.0 mg/kg/injection, schedule: Q04DX002 (ip), vehicle: carboxymethylcellulose (CMC)) 0 of 3 and 0 of 6.
In the case of `Cc1ccc([I+]c2ccc(C)c(C)c2C)c(C)c1C`, the survivor count is, setting by setting: (dose: 14.0 mg/kg/injection, schedule: Q01DX001 (ip), vehicle: acetone) 1 of 6; (dose: 35.0 mg/kg/injection, schedule: Q01DX001 (ip), vehicle: acetone) 2 of 6.
Take `Nc1ccc(OCc2ccccc2)cc1`: under setting [3], the survivor count is 2 of 6.
For `CCC1CN2C(=N1)c1ccccc1-c1cc(Br)ccc12` (stereo not given), the survivor count reads like this: (dose: 20.0 mg/kg/injection, schedule: Q04DX003 (ip), vehicle: Klucel (hydroxypropylcellulose) (HPC)) 6 of 6; (dose: 40.0 mg/kg/injection, schedule: Q04DX003 (ip), vehicle: Klucel (hydroxypropylcellulose) (HPC)) 6 of 6; (dose: 80.0 mg/kg/injection, schedule: Q04DX003 (ip), vehicle: Klucel (hydroxypropylcellulose) (HPC)) 2 of 6; under setting [7], 4 of 6; under setting [8], 0 of 6; under setting [9], 0 of 6.
Take `Cc1c2ccccc2c(CSCC(N)C(=O)O)c2ccc3ccccc3c12` (stereo not given): under setting [3], the survivor count is reported as 6 of 6.
Take `CCCC(=O)C(CC)C(O)(C(F)(F)F)C(F)(F)F` (stereo not given): the survivor count under setting [10] is 2 of 6.
In the case of `Cc1ccc(NC(=O)Oc2ccc([N+](=O)[O-])cc2)cc1S(=O)(=O)F`, the survivor count under setting [5] was 0 of 3 and 4 of 6; the survivor count under setting [4] is 0 of 3.
On to `CC(=O)Nc1cccc2nsnc12`, for which the survivor count under setting [9] was 1 of 6.
For `NC(CSSCC(N)=NCc1ccccc1)=NCc1ccccc1`, the survivor count is reported as 0 of 6 under setting [11], 0 of 6 under setting [12] and 0 of 6 under setting [4].
Consider `C=C(C)Cc1c(C)c(Cl)cc(Cl)c1O`, for which the survivor count is, setting by setting: (dose: 200.0 mg/kg/injection, schedule: Q01DX001 (ip), vehicle: saline) 3 of 6; under setting [13], 3 of 6.
Consider `CCCCOC(=O)CSSCC(=O)OCCCC`, for which the survivor count under setting [4] was 6 of 6.
For `OC(c1ccccc1)(c1ccccc1)c1ccncc1`, the survivor count under setting [2] is 3 of 3 and the survivor count under setting [3] is listed as 3 of 3.
Take `CC1CCCC(NC(=O)N(CCCl)N=O)C1` (stereo not given): the T/C reads like this: (dose: 16.0 mg/kg/injection, schedule: Q01DX001 (ip), vehicle: other) 147 % of control; (dose: 143.0 mg/kg/injection, schedule: Q01DX001 (ip), vehicle: other) 128 % of control. In addition, the survivor count (dose: 250.0 mg/kg/injection, schedule: Q01DX001 (ip), vehicle: other) is recorded as 6 of 6; the survivor count (dose: 375.0 mg/kg/injection, schedule: Q01DX001 (ip), vehicle: other) is 6 of 6; the survivor count (dose: 500.0 mg/kg/injection, schedule: Q01DX001 (ip), vehicle: other) was 4 of 6; the survivor count (dose: 750.0 mg/kg/injection, schedule: Q01DX001 (ip), vehicle: other) is recorded as 2 of 6.
`CCC1CCNCC1`: the survivor count was 2 of 6 and 3 of 6 (dose: 100.0 mg/kg/injection, schedule: Q01DX009 (ip), vehicle: saline); 0 of 6 under setting [14]; 0 of 6 under setting [10].
`Cc1[nH]c(=O)[nH]c(=O)c1/C=C/C(=O)NC(CO)CC(C)C` (stereo not given): the T/C is 125 % of control [5 of 6 alive] (dose: 50.0 mg/kg/injection, schedule: Q01DX009 (ip), vehicle: saline) and 125 % of control under setting [14]. Moreover, under setting [10], the survivor count was 3 of 6.
`C=CC12COC(=O)C(=C)C1C1OC(=O)C(=C)C1C(O)C2` (stereo not given): the survivor count runs as follows: (dose: 10.0 mg/kg/injection, schedule: Q01DX009 (ip), vehicle: saline + alcohol) 3 of 6; (dose: 12.0 mg/kg/injection, schedule: Q01DX009 (ip), vehicle: saline) 2 of 6; (dose: 20.0 mg/kg/injection, schedule: Q01DX009 (ip), vehicle: saline + alcohol) 0 of 6.
As to `CCOC(=O)/C=C(\CC(=O)OCC)Nc1ccc(OC)cc1`, under setting [14], the survivor count is given as 6 of 6.
As to `CC1=CC(=O)N(CO)C1=O`, the survivor count (dose: 100.0 mg/kg/injection, schedule: Q04DX003 (ip), vehicle: water) is recorded as 4 of 6.
For `CN(C)CCCC1C2CCC(C2)C1C#N` (stereo not given), the survivor count by setting is: under setting [7], 2 of 6; under setting [8], 0 of 6; under setting [9], 0 of 6.
Consider `O=[n+]1ccn2cc3ccccc3cc2c1`, for which the survivor count reads like this: under setting [1], 2 of 6; under setting [15], 3 of 6.
In the case of `O=C1OCCN1/N=C/c1ccc(Cl)cc1`, the survivor count under setting [6] was 3 of 3.
Turning to `COc1cc2c(cc1OC)C(C(C)C)NCC2O` (stereo not given), under setting [13], the survivor count was 2 of 6.
As to `CNNC(=O)c1ccncc1`, the survivor count is listed as 0 of 6 (dose: 250.0 mg/kg/injection, schedule: Q01DX015 (ip), vehicle: water) and 0 of 6 (dose: 500.0 mg/kg/injection, schedule: Q01DX015 (ip), vehicle: water).
Turning to `Cc1ccc2c(c1)[n+]([O-])c1nc(N)nc(N)c1[n+]2[O-]`, where the note is “dose: 200.0 mg/kg/injection, schedule: Q04DX002 (ip), vehicle: Klucel (hydroxypropylcellulose) (HPC)”, the T/C is 125 and 128 % of control.
`N#C/C(=C\C1CCC(Cl)C(Cl)C1)C1CCC([N+](=O)[O-])CC1` (stereo not given): for the setting “dose: 200.0 mg/kg/injection, schedule: Q04DX002 (ip), vehicle: saline with Tween-80”, the survivor count was 3 of 3.
Take `CCCCCCCCCCCCOCCCN`: the survivor count under setting [15] was 5 of 6, the survivor count under setting [11] is recorded as 1 of 6, the survivor count under setting [12] is 0 of 6 and the survivor count under setting [4] is 0 of 6.
